Article PMC7862700
The entries are a selection whose mix differs from that of the whole data set. At the low end of the ranking, values are background and their order means little.

What follows are sequences tested against T1, ELF5 (UniProt Q9UKW6-2) (assay: DAPPL (digital affinity profiling via proximity ligation, sequencing)). Conditions: 10 mM Tris-HCl pH 7.5, 50 mM NaCl, 1 mM DTT, 4% glycerol, room temperature, 30 min; GST-TFs on glutathione beads, 16-mer random dsDNA library, 0.1% …; high values mean tight binding; double strand, one strand shown; scale: fold enrichment (6-mer frequency, TF over GST control).
T1 sequence: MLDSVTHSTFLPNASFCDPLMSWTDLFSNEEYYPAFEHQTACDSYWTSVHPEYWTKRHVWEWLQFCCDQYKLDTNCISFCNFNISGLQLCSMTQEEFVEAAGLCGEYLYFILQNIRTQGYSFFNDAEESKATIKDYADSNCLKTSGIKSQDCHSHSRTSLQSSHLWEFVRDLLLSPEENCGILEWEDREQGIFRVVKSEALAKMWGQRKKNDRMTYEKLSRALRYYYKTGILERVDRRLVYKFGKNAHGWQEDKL
GGCCTA gave a binding signal of 1.13.
ATTCCG was tested, and the binding signal was 2.17.
For TAGCCC, the binding signal was 1.07.
In the case of TGACTT, the binding signal is reported as 1.56.
Sequence TTAACG has a binding signal of 1.14.
With TACATG the binding signal was 1.16.
AAATTC was tested, and the binding signal was 1.4.
Sequence GAATTC has a binding signal of 1.32.
CTTGGG was tested, and the binding signal was 1.19.
Work on TACCGA yielded a binding signal of 1.08.
For TTATGA, the binding signal was 1.09.
ATGTAT showed a binding signal of 1.31.
TTGCTA gave a binding signal of 1.21.
AGCCTC was tested, and the binding signal was 1.16.
TTCAGC was tested, and the binding signal was 1.16.
For AACTGC, the binding signal was 1.36.
CCTCTC showed a binding signal of 1.41.
With TCGCCT the binding signal was 1.33.
In the case of ATCATC, the binding signal is reported as 1.17.
In the case of AAAGAA, the binding signal is reported as 1.23.
TGTTCT gave a binding signal of 1.37.
In the case of CGAAAA, the binding signal is reported as 0.995.
For TGTTAA, the binding signal was 1.13.
Work on CGAGCT yielded a binding signal of 0.958.
In the case of CCCAAT, the binding signal is reported as 1.23.
In the case of ATTCCC, the binding signal is reported as 1.5.
In the case of AGCCCC, the binding signal is reported as 1.01.
With AACCTT the binding signal was 1.33.
TGGTAT showed a binding signal of 1.37.
GCTTTG gave a binding signal of 1.13.
TGCGCT gave a binding signal of 1.15.
For GTATTT, the binding signal was 1.62.
In the case of CAAAAC, the binding signal is reported as 1.25.
Work on TTAAAA yielded a binding signal of 1.11.
In the case of TACTGA, the binding signal is reported as 0.961.
With CTTCTG the binding signal was 1.39.
TACCTC was tested, and the binding signal was 1.29.
TGCGAT was tested, and the binding signal was 1.11.
With ATAGTA the binding signal was 1.13.
AAAGCG showed a binding signal of 1.07.
